Earlier results on 4 compounds are cited in US20230321008A1, “INHIBITORS OF ACID SPHINGOMYELINASE FOR PREVENTING AND TREATING THE COVID-19 DISEASE” (priority 2020, published 2023).

This data set concerns the target T1, acid sphingomyelinase (ASM) (Homo sapiens, UniProt P17405).
T1 sequence (P17405 47-631): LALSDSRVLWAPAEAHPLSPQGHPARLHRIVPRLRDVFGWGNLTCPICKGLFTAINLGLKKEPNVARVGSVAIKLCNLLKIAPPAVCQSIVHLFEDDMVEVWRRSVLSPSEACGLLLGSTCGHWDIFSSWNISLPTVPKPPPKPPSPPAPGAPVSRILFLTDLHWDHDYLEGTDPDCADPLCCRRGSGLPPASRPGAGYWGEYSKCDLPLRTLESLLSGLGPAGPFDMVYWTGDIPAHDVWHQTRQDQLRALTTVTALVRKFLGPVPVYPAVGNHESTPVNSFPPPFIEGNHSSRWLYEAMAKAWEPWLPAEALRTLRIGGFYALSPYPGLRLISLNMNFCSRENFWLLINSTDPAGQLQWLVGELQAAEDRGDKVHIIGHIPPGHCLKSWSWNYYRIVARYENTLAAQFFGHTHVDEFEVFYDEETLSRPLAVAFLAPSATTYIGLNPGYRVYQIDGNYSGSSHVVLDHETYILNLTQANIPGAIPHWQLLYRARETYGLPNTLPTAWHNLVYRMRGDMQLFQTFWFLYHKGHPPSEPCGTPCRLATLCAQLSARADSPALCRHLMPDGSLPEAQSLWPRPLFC
The settings on record: cited from earlier work.

With `C(=C\c1ccccc1)/CN1CCN(C(c2ccccc2)c2ccccc2)CC1` [cinnarizine], the “In vitro inhibition of acid sphingomyelinase (in words)” value (from here on “In vitro inhibition”) is “in vitro inhibit acid sphingomyelinase with varying degrees”.
`CN1CCC[C@@H]1CCO[C@](C)(c1ccccc1)c1ccc(Cl)cc1` [clemastine]: the “In vitro inhibition” value was “in vitro inhibit acid sphingomyelinase with varying degrees”.
With `Clc1ccc2c(c1)CCc1cccnc1C2=C1CCNCC1` [Desloratadine, desloratadine], the “In vitro inhibition” value is on record as “in vitro inhibit acid sphingomyelinase with varying degrees”.
As for `CCN(CC)CCOC(=O)C1(C2CCCCC2)CCCCC1` [dicycloverine], the “In vitro inhibition” value was “in vitro inhibit acid sphingomyelinase with varying degrees”.
